Experimental data reported in article PMC3397948, “Cytoplasmic Sulfurtransferases in the Purple Sulfur Bacterium Allochromatium vinosum: Evidence for Sulfur Transfer from DsrEFH to DsrC” (PLoS ONE, 2012).
Substitutions are numbered along the chain they refer to. Results are given in words; binding and its absence hold for the method and conditions named. Some results given as binding are weak or reduced against the parent protein; the word gives no strength.

B1: DsrC from Allochromatium vinosum, wild type (natural protein, UniProt O87899 1-112, looked up)
chain: MADTIEVDGKQFAVDEEGYLSNLNDWVPGVADVMAKQDNLELTEEHWDIINFLREYYEEYQIAPAVRVLTKAVGKKLGKEKGNSKYLYSLFPYGPAKQACRFAGLPKPTGCV
notes: DsrC, Allochromatium vinosum; conserved Cys100 and Cys111 (Cys111 in the penultimate position of the protein); Reduced with 25 uM TCEP before SPR; also called DsrC wild type; DsrC wt; source: overproduced and purified as described earlier [22], [8], [3]; not shown: His-tag, N-terminal, kept
B2: DsrC-Ser100 (DsrC with Cys100 replaced by serine) (protein, UniProt O87899 1-112)
chain: B1 chain with C100S
B3: DsrC-Ser111 (DsrC with Cys111 replaced by serine) (protein, UniProt O87899 1-112)
chain: B1 chain with C111S
B4: DsrC-Ser100/111 double mutant (DsrC with Cys100 and Cys111 replaced by serine) (protein, UniProt O87899 1-112)
chain: B1 chain with C100S, C111S

Experiments:
[1] = molecular target: T1, DsrEFH from Allochromatium vinosum (DsrE2F2H2 heterohexamer), wild type (Allochromatium vinosum) (UniProt O87896+O87897+O87898); test: SPR; Biacore 2000, CM5 chip, DsrEFH amine-coupled (~600 RU); DsrC proteins reduced with 25 µM TCEP and injected (40-1280 nM wild type; 80 nM for the comparison of mutants), 25°C, 10 mM HEPES, 150 mM NaCl, 3 mM EDTA, 0.005% Tween 20, pH 7.4; both purified
T1 sequence 1: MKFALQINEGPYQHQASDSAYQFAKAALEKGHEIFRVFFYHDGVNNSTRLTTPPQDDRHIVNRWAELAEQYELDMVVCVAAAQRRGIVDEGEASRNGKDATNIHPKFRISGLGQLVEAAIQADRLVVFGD
T1 sequence 2: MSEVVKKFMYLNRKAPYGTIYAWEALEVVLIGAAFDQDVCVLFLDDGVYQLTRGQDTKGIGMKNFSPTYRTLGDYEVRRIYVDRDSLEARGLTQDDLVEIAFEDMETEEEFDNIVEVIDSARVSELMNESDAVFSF
T1 sequence 3: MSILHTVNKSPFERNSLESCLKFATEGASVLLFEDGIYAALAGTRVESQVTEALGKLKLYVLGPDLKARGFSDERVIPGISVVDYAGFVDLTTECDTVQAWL

[2] = molecular target: T1, DsrEFH from Allochromatium vinosum (DsrE2F2H2 heterohexamer), wild type (Allochromatium vinosum); test: native gel or EMSA; 200 pmol DsrEFH and 400 pmol DsrC incubated 30 min at 30°C in 5 mM HEPES pH 7.8, 0.1 M KCl, 0.01% Tween 20, 25 µM TCEP; native polyacrylamide gel (7.5%) at 4°C; shifted bands cut out and run on SDS-PAGE (15%); both purified

Binder	binding [1]	binding [2]
B1	binds	binds
B2	binds	
B3	binds weakly	
B4	binds weakly	
